Each structure is given as a SMILES string. This is one part of the list. Further columns of the screen follow, without active or inactive calls. The list favours compounds with an active or inconclusive main result. The note in brackets gives the kind of curve behind each potency; many fits are weak.

A short description of the assay: qHTS Assay for Modulators of Lamin A Splicing. The conditions noted are these: HeLa LMNA splicing GFP/RFP minigene ratio, 48 h. The method, boiled down: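 S3 HeLa cells stably expressing lamin A-EGFP splicing minigene plus DsRed2, 600 cells/well, 48 h compound exposure at 37C. Laser-scanning cytometry; analysed as GFP (500-530 nm)/RFP (575-640 nm) total intensity ratio; 0.5% DMSO vehicle.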

Setting [1] is: measured here: RFP viability control channel.
Setting [2] is: measured here: GFP splicing reporter channel.

As usually defined, the AC50 is the concentration at which the activity in the assay is half-maximal. In the case of `FC(F)(F)c1ccc(N2CCN(Cc3ccc4c(c3)OCO4)CC2)nc1`, the AC50 under setting [1] was 35.5 µM [rising, single point].

As for `C/C(=N\NC(=S)NCCc1ccccc1)c1ccc(C)cc1`, the AC50 under setting [1] was 35.5 µM [rising, single point].

For the compound `Cc1nn(-c2ccccc2)c(N)c1Sc1ccc([N+](=O)[O-])cc1`, the AC50 under setting [1] is 11.2 µM [rising, partial curve].

With `COCc1ccc2oc(C(=O)O)cc2c1`, the AC50 under setting [1] was 0.02 µM [falling, full curve, poor fit].

In the case of `Clc1nc(NCc2ccco2)nc(N2CCCCC2)n1`, the concentration at half-maximal activity (AC50) under setting [2] was 0.00355 µM [falling, full curve, poor fit].

Turning to `Cc1ccc(N(CC(O)Cn2nc(C)cc2C)S(=O)(=O)c2ccc3ccccc3c2)cc1` (stereo not drawn), the AC50 under setting [1] was 35.5 µM [rising, single point].

`Cc1c(C(=O)N2CCOCC2)sc2ncnc(N3CCc4ccccc4C3)c12`: under setting [1], the AC50 was 10 µM [rising, partial curve].

`O=c1c(-c2ccc(F)cc2)coc2cc(O)ccc12`: the AC50 under setting [2] is 11.2 µM [rising, single point].

Consider `COc1cccc(OC)c1C(=O)NC(=S)Nc1ccc(N2CCOCC2)c(Cl)c1`, for which, under setting [1], the AC50 is 0.0251 µM [falling, full curve, poor fit].

Take `c1ccc(-c2csc3ncn4nnnc4c23)cc1`: the AC50 reads like this: under setting [2], 17.8 µM [falling, partial curve]; under setting [1], 22.4 µM [falling, single point].

With `CCOC(=O)c1c(-c2cccs2)csc1NC(=O)C(C)(C)C`, the AC50 under setting [2] is 15.8 µM [rising, single point] and the AC50 under setting [1] was 35.5 µM [rising, single point].

Regarding `COc1ccc(Cn2c(=O)[nH]c3cc(C(=O)N4CCN(Cc5ccccc5)CC4)ccc3c2=O)cc1`, the AC50 was 3.55 µM [rising, partial curve] under setting [2] and 3.98 µM [rising, full curve] under setting [1].

On to `CCC(=O)N1CC2(c3ccccc3)CN(C(=O)CC)CC(c3ccccc3)(C1)C2=O`, for which the AC50 under setting [1] was 35.5 µM [rising, single point].

For the compound `COc1ccc(NS(=O)(=O)c2ccc3oc(SCc4ccc(F)cc4)nc3c2)cc1`, the AC50 under setting [1] was 6.31 µM [rising, full curve].

As to `Cc1cc(C)cc(NC(=O)c2sc3nc[nH]c(=O)c3c2C)c1`, the AC50 under setting [2] was 6.31 µM [falling, partial curve].

With `O=C1CN(C(=O)CSc2nc(-c3ccc(Cl)cc3)cs2)c2ccccc2N1`, under setting [1], the AC50 is 35.5 µM [rising, single point].

With `CCOC(=O)Cn1c(=O)n(CC2CCCO2)c2nc(-c3ccccc3Cl)nc(C(N)=O)c21` (stereo not drawn), the AC50 under setting [1] is 0.00316 µM [falling, full curve, poor fit].

Turning to `COc1cc(OC)c(OC)cc1CNc1cc(C)ccc1OC`, the AC50 reads like this: under setting [2], 0.0794 µM [rising, full curve, poor fit]; under setting [1], 20 µM [rising, partial curve].

Take `Clc1ccc(/C=C\c2nccc3c2[nH]c2ccccc23)cc1`: under setting [1], the AC50 was 8.91 µM [falling, partial curve, poor fit].

With `Cc1cccc(C)c1NC(=O)CS(=O)CC(=O)NC1CCN(Cc2ccccc2)CC1` (stereo not drawn), the AC50 by setting is: under setting [2], 3.55 µM [rising, partial curve, poor fit]; under setting [1], 1.41 µM [rising, full curve, poor fit].

In the case of `CCOc1ccccc1NC(=O)/C(C#N)=C/c1c(C)nn(-c2ccc(F)cc2)c1Cl`, the AC50 under setting [1] was 0.2 µM [rising, full curve, poor fit].

As for `CCCCCCCCCCCCCCCC[n+]1cccc2ccccc21`, the AC50 under setting [1] was 35.5 µM [rising, single point].

Turning to `O=C1N/C(=C/c2cccn2-c2ccc(F)cc2)C(=O)N1Cc1ccccc1F`, under setting [1], the AC50 is 3.16 µM [rising, single point].

In the case of `CCCn1c2ccc(F)cc2c2nnc(NN)nc21`, under setting [2], the concentration at half-maximal activity (AC50) was 22.4 µM [falling, single point].

For `O=C(Nc1ccc2c(c1)OCCO2)C1CCCN(S(=O)(=O)c2cnc[nH]2)C1` (stereo not drawn), the AC50 under setting [1] is 0.282 µM [rising, partial curve].

On to `CC(C)N(Cc1nc(-c2ccc(Cl)cc2)no1)C(=O)CN(C)S(=O)(=O)c1ccc(Cl)cc1`, for which the AC50 under setting [1] is 17.8 µM [rising, single point].

Turning to `CCOc1ccccc1NC(=O)C1=C(C)Nc2ncnn2C1c1sccc1C` (stereo not drawn), under setting [1], the AC50 was 0.00794 µM [falling, full curve].

With `Cc1cccc(C(=O)N2CCN(c3ccc(C(F)(F)F)cn3)CC2)c1C`, the AC50 runs as follows: under setting [2], 14.1 µM [rising, single point]; under setting [1], 35.5 µM [rising, single point].

As to `COc1cc(-c2nnc3n2N=C(c2ccccc2)CS3)cc(OC)c1OC`, the AC50 under setting [1] is 3.55 µM [rising, single point].

In the case of `O=C(O)c1cc2nc3c(c(C(F)(F)F)n2n1)CCCC3`, the concentration at half-maximal activity (AC50) under setting [2] is 0.794 µM [rising, full curve, poor fit].

For `COc1ccc(NC(=S)NC(NC(=O)c2cccc(Cl)c2)C(Cl)(Cl)Cl)c([N+](=O)[O-])c1` (stereo not drawn), the AC50 under setting [2] is 35.5 µM [falling, single point].

As for `COc1ccc(-c2csc(NC(=O)C3CCCCN3S(=O)(=O)c3ccccc3)n2)cc1` (stereo not drawn), the AC50 was 2.82 µM [rising, full curve] under setting [2] and 7.08 µM [rising, full curve] under setting [1].

On to `CCOc1ccc(OCC)c(NC(=O)CSc2nc3ccccc3c(=O)n2C)c1`, for which the AC50 under setting [1] was 4.47 µM [rising, full curve].

For the compound `CCNc1ncc2nc(-c3cccs3)c(=O)n(Cc3cccc(OC)c3)c2n1`, the AC50 runs as follows: under setting [2], 20 µM [falling, partial curve, poor fit]; under setting [1], 17.8 µM [falling, partial curve, poor fit].

For `CCc1cc2ccc(C)cc2nc1SCC(=O)Nc1cc(OC)c(OC)cc1C(=O)O`, the concentration at half-maximal activity (AC50) under setting [1] was 22.4 µM [rising, partial curve, poor fit].

Regarding `O=C(C(Cc1ccccc1)N1C(=O)c2ccccc2C1=O)N1c2ccccc2CCc2ccccc21` (stereo not drawn), the half-maximal activity concentration (AC50) under setting [1] was 10 µM [rising, partial curve].

Turning to `OCl`, the concentration at half-maximal activity (AC50) under setting [2] was 3.16 µM [rising, single point].

Take `Cc1cc(Cl)cc(Br)c1OCCCNCC(C)O` (stereo not drawn): the AC50 under setting [2] is 0.0282 µM [rising, full curve, poor fit] and the AC50 under setting [1] is 35.5 µM [rising, partial curve, poor fit].

As for `CN(C)c1ccc(-c2nc3ccccc3n2C)cc1`, the AC50 is 14.1 µM [rising, single point] under setting [2] and 20 µM [rising, single point] under setting [1].

`CN(C)C(CNC(=O)c1cccc(S(=O)(=O)N(C)C)c1)c1ccccc1` (stereo not drawn): under setting [2], the AC50 is 5.62 µM [falling, single point].

As to `CN(C)c1ccc(N=Nc2ccccc2C(=O)OCC(=O)N(C)C2CCCCC2)cc1`, under setting [1], the AC50 was 7.94 µM [rising, partial curve, poor fit].

Take `Cc1cc(=O)oc2cc(OCc3ccc(C(=O)N4CCN(c5ccccc5)CC4)cc3)ccc12`: the AC50 was 6.31 µM [rising, partial curve] under setting [2] and 15.8 µM [rising, partial curve] under setting [1].

Turning to `CC(=O)Oc1ccc2ccccc2c1C(NC(=O)C(C)C)c1cccc([N+](=O)[O-])c1` (stereo not drawn), the AC50 under setting [1] was 20 µM [rising, single point].

As to `COc1ccc(C(=O)NCC(c2cccnc2)N2CCN(c3ccccc3OC)CC2)cc1` (stereo not drawn), under setting [1], the half-maximal activity concentration (AC50) is 14.1 µM [rising, single point].

For `CCc1ccc(OCC(=O)N/N=C(\C)c2ccccc2OC(F)F)cc1`, the AC50 under setting [1] was 11.2 µM [rising, single point].

For `CCOc1ccccc1C(=O)N[C@H](C(=O)OCc1cc(=O)oc2cc(C)ccc12)C(C)C`, the AC50 reads like this: under setting [2], 35.5 µM [rising, single point]; under setting [1], 35.5 µM [rising, single point].

For the compound `CNC(=O)[C@H]1O[C@@H](n2cnc3c(NCc4ccc(N)cc4)ncnc32)[C@H](O)[C@H]1O`, under setting [2], the AC50 is 7.08 µM [rising, partial curve, poor fit].

Take `COc1ccc(Nc2nnc(SCC(=O)NC(=O)Nc3ccc4c(c3)OCCO4)s2)cc1`: under setting [1], the AC50 is 0.0224 µM [rising, full curve, poor fit].

With `COc1ccccc1NS(=O)(=O)c1cc(NC(=O)c2ccc3c(c2)OCCO3)ccc1C`, the concentration at half-maximal activity (AC50) runs as follows: under setting [2], 3.55 µM [rising, partial curve]; under setting [1], 11.2 µM [rising, partial curve].

As for `CCCn1nnc(NCc2ccc(OCc3cccs3)c(OC)c2)n1`, the AC50 under setting [1] was 15.8 µM [rising, partial curve, poor fit].

As for `CN1CCN(S(=O)(=O)c2cccc(C(=O)Nc3sc4c(c3-c3nc5ccccc5[nH]3)CCCC4)c2)CC1`, the half-maximal activity concentration (AC50) under setting [1] is 8.91 µM [rising, partial curve, poor fit].

`Cc1nc(NC(=O)c2ccc(OCC(C)C)cc2)sc1Cc1ccc2c(c1)OCO2`: the AC50 under setting [2] was 31.6 µM [rising, single point].

Consider `CN=C1CC(C)(C)CC(=O)/C1=C(/O)CCCN1C(=O)c2ccccc2C1=O`, for which the AC50 is 0.0178 µM [rising, full curve, poor fit] under setting [2] and 0.398 µM [rising, full curve] under setting [1].

As for `O=C(CCCCCn1c(=S)[nH]c2cc3c(cc2c1=O)OCO3)N1CCN(Cc2ccccc2)CC1`, under setting [1], the AC50 is 15.8 µM [rising, single point].

Turning to `O=C(Nc1ccccc1)c1snc2c(=O)[nH]cnc12`, the AC50 under setting [2] was 0.631 µM [rising, partial curve, poor fit] and the AC50 under setting [1] is 0.224 µM [rising, full curve, poor fit].

In the case of `Cc1ccc(Cl)cc1NC(=O)COC(=O)Cn1cnc2c1c(=O)n(C)c(=O)n2C`, the half-maximal activity concentration (AC50) under setting [1] was 35.5 µM [falling, partial curve].

For `O=C(NC(NC(=S)Nc1cccc(Cl)c1)C(Cl)(Cl)Cl)OCc1ccccc1` (stereo not drawn), the AC50 under setting [2] is 11.2 µM [rising, partial curve] and the AC50 under setting [1] was 17.8 µM [rising, single point].

For the origin of these results see PubChem BioAssay AID1487 (National Center for Advancing Translational Sciences (NCATS), 2009).
